Results: PubChem BioAssay AID2685 (National Center for Advancing Translational Sciences (NCATS), 2010)
The other results are listed elsewhere or left out. The main result of the screen is listed elsewhere. These columns were measured beside it and carry no call. Most of these compounds were active or inconclusive in the main read-out, so they are no random draw. The note in brackets gives the kind of curve behind each potency; many fits are weak.

Experiment: qHTS Assay for Lipid Storage Modulators in Drosophila S3 Cells;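 for cell number change: cells counted by Cell Tracker Red CMTPX staining in the red channel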
Conditions: BODIPY lipid droplet fluorescence, 18-24 h; for cell number change: measured here: cell count max response, cells fed with added oleic acid
In short: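 Laser-scanning cytometry quantifies lipid droplet accumulation (500–530 nm total intensity; droplet/cell object ratio) in oleic acid-fed (400 uM added) Drosophila S3 cells treated with a concentration series. 20 uM Triacsin C defined 100% inhibition.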

[1] = measured here: lipid fluorescence (Fed channel) AC50, cells fed with added oleic acid
[2] = measured here: cell number channel AC50, cells fed with added oleic acid

Structure (SMILES) | cell number change [%] | AC50 [1] | AC50 [2]
O=C(CNC(=O)c1ccc(Br)cc1)c1ccc(Br)cc1 | 3.41 | 29.1 µM [rising, single point] | –
Cc1[nH]c2ccccc2c1C(=O)/C=C/c1ccccc1 | -12.4 | – | –
O=C(CSc1n[nH]c(-c2ccccc2)n1)Nc1ccc(Br)cn1 | -47.7 | 14.6 µM [falling, partial curve] | 13 µM [falling, single point]
CC1(C)Cc2c(c(N3CCOCC3)nc3sc4c(NCc5ccco5)nnnc4c23)CS1 | -24.4 | 0.411 µM [rising, single point] | –
CCc1nnc(NC(=O)Nc2ccc(OC)cc2)s1 | -11.7 | 0.116 µM [falling, full curve] | 0.411 µM [falling, full curve, poor fit]
Cc1nc(S/C(C(=O)O)=C2/C(=O)Nc3ccccc32)n[nH]1 | 51.9 | – | 29.1 µM [rising, single point]
S=c1nc2c(n[nH]1)c1ccccc1n2CCc1ccccc1 | -17.8 | 16.4 µM [falling, single point] | –
CC(C)(C)c1cc(C(=O)NNc2cccc(Cl)c2)n(Cc2ccccc2)n1 | -38.9 | 25.9 µM [falling, partial curve, poor fit] | 32.6 µM [falling, single point]
Cc1cccc(C)c1NC1=NC2(CCCCC2)N=C(N)N1 | -10.5 | – | 0.13 µM [falling, full curve, poor fit]
CC(=O)NCCCc1nc2ccccc2n1Cc1ccccc1F | 13.3 | – | –
CCOC(=O)c1ccc(Oc2cc(C)nc(SC)n2)cc1 | 45.4 | 29.1 µM [rising, single point] | 29.1 µM [rising, single point]
CCNc1c([N+](=O)[O-])c(=O)n(CC)c2ccccc12 | 23.8 | 29.1 µM [rising, single point] | –
CC(C)(C)C(=O)C1=C(O)C(=O)N(Cc2ccccc2)C1c1ccccc1Cl (stereo unspecified) | 1.82 | – | –
CS(=O)(=O)N(CC(=O)O)c1ccc2c(c1)OCO2 | -33.8 | 1.3 µM [falling, full curve] | 0.206 µM [falling, full curve]
Cc1cc(C)c(C(=O)C(C)OC(=O)Cn2cnc3c2c(=O)n(C)c(=O)n3C)cc1C (stereo unspecified) | -99.2 | – | 29.1 µM [falling, partial curve, poor fit]
O=S(=O)(c1cccs1)N1CCN(Cc2nc3ccccc3s2)CC1 | – | 1.46 µM [rising, full curve] | 1.64 µM [rising, partial curve]
CCOc1ccc(OCCC(=O)OCC(=O)NC2CC2)cc1 | 3.86 | 5.17 µM [rising, partial curve, poor fit] | 5.8 µM [rising, single point]
O=C(Nc1ccc(S(=O)(=O)N2CCOCC2)cc1)c1cccc([N+](=O)[O-])c1 | 16.8 | 20.6 µM [falling, single point] | –
O=C(Nc1ccc(N=Nc2ccccc2)cc1)c1ccc(Cl)cc1Cl | -35.2 | 2.59 µM [falling, full curve, poor fit] | 8.2 µM [falling, partial curve, poor fit]
Cc1cccc(NS(=O)(=O)c2cccc(C(=O)N3CCN(C/C=C/c4ccccc4)CC3)c2)c1 | -35.9 | – | 20.6 µM [falling, partial curve, poor fit]

Structure (SMILES) | cell number change [%] | AC50 [1] | AC50 [2]
COc1ccccc1CN(C)c1ccc(S(=O)(=O)N2CCN(C)CC2)cn1 | 7.64 | 29.1 µM [rising, single point] | –
CCCC(CCC)C(=O)Nc1cccc(-c2cn3c(n2)SCC3)c1 | 1.19 | – | –
COc1cc(NC(=O)c2ccc(OC)c([N+](=O)[O-])c2)ccc1NC(=O)c1cccs1 | 0.862 | – | –
Cc1nnc(NC(=O)CSc2nnc(CCNC(=O)c3ccccc3F)n2C)s1 | -13.2 | 3.16 µM [rising, partial curve, poor fit] | –
O=C(NCCc1ccc(F)cc1)c1ccc(NS(=O)(=O)c2ccc3[nH]c(=O)[nH]c3c2)cc1 | -5.55 | 1.3 µM [falling, full curve, poor fit] | 0.82 µM [falling, partial curve, poor fit]
Cc1ccc(C(=O)NCCc2nnc(SCC(=O)Nc3nc(-c4ccccc4)cs3)n2C)cc1 | -38.5 | 8.2 µM [falling, partial curve] | 8.2 µM [falling, partial curve]
COc1ccc(NC(=O)c2c(NC(=O)CCC(=O)O)sc3c2CCCCC3)cc1 | 30.4 | – | 29.1 µM [rising, partial curve]
COc1ccc(Nc2cc(Cl)ccc2C(=O)O)cn1 | -18.2 | – | 4.61 µM [falling, single point]
CN(C)S(=O)(=O)c1cccc(NC(=O)c2ccc(S(=O)(=O)N3CCCC3)cc2)c1 | -24.2 | 1.16 µM [falling, full curve, poor fit] | –
CN(C)S(=O)(=O)c1ccc(S(=O)(=O)NCc2cccs2)cc1 | 33.3 | – | 14.6 µM [rising, partial curve]
CCC(C)(C)N(C(=O)CCC(=O)Nc1cc(C)on1)C(C(=O)NC(C)(C)C)c1ccc(OC)cc1 (stereo unspecified) | -35.2 | – | 11.6 µM [falling, partial curve, poor fit]
CCOC(=O)c1cnc(-n2nc(C)cc2C)nc1NC1CCCCC1 | -20.7 | 0.82 µM [falling, full curve, poor fit] | –
COc1ccc(S(=O)(=O)N2CC(O)C[C@H]2C(=O)OCC(=O)N2CCCCCC2)cc1 (stereo partly specified) | 24 | 16.4 µM [rising, single point] | –
O=C(Cn1c(NCCO)nc2ccccc21)NCCc1ccc(F)cc1 | -2.15 | 6.51 µM [falling, single point] | –
Cc1ccc[n+](CC(=O)Nc2ccc(C)c(C)c2)c1 | 14.3 | – | –
CC(C)(C)C(=O)CN1CCN(C2c3ccccc3-c3ccccc32)CC1 | – | – | 6.51 µM [rising, single point]
COc1cccc(N2CCN(Cc3ncc(-c4ccccc4)o3)CC2)c1 | 33.8 | – | –
CCOC(=O)c1sc2nc(C)nc(Nc3ccc(OC)c(OC)c3)c2c1C | -56.2 | 29.1 µM [falling, single point] | 25.9 µM [falling, single point]
C/C(CC(=O)N1CCN(C=O)CC1)=N\NC(=O)c1cc2ccccc2cc1O | 18.7 | 16.4 µM [rising, partial curve] | –
COC(=O)CSCc1nc2ccccc2[nH]c1=O | – | 0.0058 µM [rising, full curve, poor fit] | –

An excerpt from above in order of SMILES length, smallest number first.
Structure (SMILES) | cell number change [%] | AC50 [1] | AC50 [2]
COC(=O)CSCc1nc2ccccc2[nH]c1=O | – | 0.0058 µM [rising, full curve, poor fit] | –
CCOc1ccc(OCCC(=O)OCC(=O)NC2CC2)cc1 | 3.86 | 5.17 µM [rising, partial curve, poor fit] | 5.8 µM [rising, single point]
Cc1cccc(C)c1NC1=NC2(CCCCC2)N=C(N)N1 | -10.5 | – | 0.13 µM [falling, full curve, poor fit]

Further structures follow.

Structure (SMILES) | cell number change [%] | AC50 [1] | AC50 [2]
O=C(Nc1ccc(Br)cc1)c1cc([N+](=O)[O-])cc([N+](=O)[O-])c1 | -29 | 16.4 µM [falling, single point] | –
Cn1c(=O)c(=O)n(C)c2cc(S(=O)(=O)CCC(=O)N3CCCCC3)ccc21 | -16.7 | 6.51 µM [falling, single point] | –
c1ccc(C(NCCNC(c2ccccc2)c2ccccc2)c2ccccc2)cc1 | -57.9 | 29.1 µM [falling, single point] | 29.1 µM [falling, single point]
COc1cc(C(=O)Nc2ccc(NC(=O)c3ccccc3)nc2)cc(OC)c1OC | 5.98 | 29.1 µM [falling, single point] | –
O=C(c1cc2cc(Cl)ccc2[nH]1)N1CCN(c2ccccn2)CC1 | 30.5 | – | –
CN(CC(=O)N1CCN(Cc2ccccc2)CC1)S(=O)(=O)c1ccc(Br)cc1 | -16.8 | 29.1 µM [falling, single point] | –
CC1(C)c2ssc(=S)c2-c2ccccc2N1C(=O)c1ccco1 | – | 0.731 µM [falling, full curve] | –
O=C(CSc1nc2ccccc2[nH]1)c1ccccc1F | -20.6 | – | –
CC(C)OCC(O)Cn1c(N2CCCC2)nc2c1c(=O)n(C)c(=O)n2C (stereo unspecified) | -23.8 | 29.1 µM [falling, single point] | –
CCC12CN(C(=O)c3ccco3)CC(CC)(CN(C(=O)c3ccco3)C1)C2=O | -24.6 | – | –
COc1cc(NC(=O)CN2C(=O)NC3(CCOc4ccccc43)C2=O)cc(OC)c1 (stereo unspecified) | -13.8 | – | –
CC(=O)Nc1ccc(C(=O)Nc2ccc(S(=O)(=O)N3CCCCC3)cc2)cc1 | -15.4 | – | –
CCCc1sc(N2CCCC(C(N)=O)C2)nc1-c1ccccc1 (stereo unspecified) | -18.4 | 0.0206 µM [falling, full curve, poor fit] | –
NS(=O)(=O)c1ccc(CCNS(=O)(=O)c2ccccc2)cc1 | 19.7 | 6.51 µM [rising, single point] | –
O=[N+]([O-])c1ccc(NC(=S)NCCc2ccc(Cl)cc2)cc1 | -106 | 20.6 µM [falling, single point] | 18.4 µM [falling, single point]
COc1cc(/C=C2\SC(=O)NC2=O)ccc1Oc1ccc([N+](=O)[O-])cc1[N+](=O)[O-] | -60.9 | 1.3 µM [falling, full curve] | 0.326 µM [falling, partial curve]
CCOc1ccc(NC(=O)CCNC(=O)c2ccc(Br)cc2)cc1 | 53.2 | 29.1 µM [rising, single point] | 51.7 µM [rising, partial curve, poor fit]
O=C(CN1C(=O)NC2(CCCCCC2)C1=O)NCc1ccco1 | 126 | 6.51 µM [falling, single point] | 6.51 µM [falling, single point]
